Data as given in PubChem BioAssay AID1259308 (NCATS, 2017).

- Test: 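Genes whose loss raises luciferase production in HEK293 cells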 (primary screen)
- Cell system: human HEK293 embryonic kidney cells stably expressing firefly luciferase (HEK-CMV-Luc2-Hygro)
- Reagents: single siRNA against human genes, 0.8 pmol siRNA per well
- Duration: 72 h
- Measured: 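Reporter luminescence and viable-cell signal on separate replicate plates, given as percent of non-targeting control and median/MAD z-scores, plus per-cell luciferase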
- Direction: total luciferase, z-score and total luciferase, % of control: higher = more reporter protein produced; luciferase per cell, z-score: higher = more reporter output per viable cell; viable cells, % of control: higher = more viable cells
- Rule for the call: 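Active when the median/MAD z-score for overall luciferase is greater than 3; a gene was taken forward for validation with new siRNAs if at least two of its three siRNAs passed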
- Meaning of the calls: active = raised luciferase; inactive = no rise
The whole screen tested about 59,000 reagents; shown is an unselected part. About 1,510 of all reagents (2.6%) count as active. 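Calls use total luciferase alone and ignore viability, so some active siRNAs may act by altering cell number.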 Unmarked entries are inactive. Reagents against one gene are numbered here.

no.	gene knocked down	siRNA no.	total luciferase, z-score	total luciferase, % of control	luciferase per cell, z-score	viable cells, % of control
1	ALDH6A1 (aldehyde dehydrogenase 6 family member A1)	1	-0.0368	81.2	-0.472	103
2	ALDH6A1 (aldehyde dehydrogenase 6 family member A1)	2	-2.33	35.6	-1.8	63.9
3	ALDH6A1 (aldehyde dehydrogenase 6 family member A1)	3	-0.811	65.8	-0.829	91.4
4	CCL24 (C-C motif chemokine ligand 24)	1	0.358	89	-0.295	107
5	CCL24 (C-C motif chemokine ligand 24)	2	-1.29	56.2	-1.95	105
6	CCL24 (C-C motif chemokine ligand 24)	3	0.78	97.4	-0.328	119
7	HOXC6 (homeobox C6)	1	-0.501	71.9	-0.906	102
8	HOXC6 (homeobox C6)	2	0.711	96	1.07	80.9
9	HOXC6 (homeobox C6)	3	3.06 (active)	143	2	94.1
10	MORC2 (MORC family CW-type zinc finger 2)	1	2.48	131	1.99	86.9
11	MORC2 (MORC family CW-type zinc finger 2)	2	2.6	134	2.45	78.2
12	MORC2 (MORC family CW-type zinc finger 2)	3	1.4	110	1.43	84.3
13	FOXL2NB (FOXL2 neighbor)	1	-0.0223	81.4	-0.246	97.1
14	FOXL2NB (FOXL2 neighbor)	2	0.57	93.2	0.518	90.9
15	FOXL2NB (FOXL2 neighbor)	3	0.0838	83.6	-0.684	112
16	PRB4 (proline rich protein BstNI subfamily 4)	1	-0.478	72.4	-0.82	100
17	PRB4 (proline rich protein BstNI subfamily 4)	2	0.107	84	-0.136	97.3
18	PRB4 (proline rich protein BstNI subfamily 4)	3	0.0748	83.4	-0.362	102
19	MOSPD1 (motile sperm domain containing 1)	1	0.284	87.5	0.574	84.1
20	MOSPD1 (motile sperm domain containing 1)	2	0.996	102	0.564	98
21	MOSPD1 (motile sperm domain containing 1)	3	0.782	97.4	0.314	100
22	CAMKV (CaM kinase like vesicle associated)	1	-0.469	72.6	1.18	59.4
23	CAMKV (CaM kinase like vesicle associated)	2	1.88	119	1.47	90.7
24	CAMKV (CaM kinase like vesicle associated)	3	-1.85	45.2	-1.37	72.3
25	TRMU (tRNA mitochondrial 2-thiouridylase)	1	0.396	89.8	-0.015	101
26	TRMU (tRNA mitochondrial 2-thiouridylase)	2	0.163	85.1	0.966	73.8
27	TRMU (tRNA mitochondrial 2-thiouridylase)	3	0.942	101	1.24	81.2
28	LIG4 (DNA ligase 4)	1	0.262	87.1	-0.276	105
29	LIG4 (DNA ligase 4)	2	2.24	127	1.46	96.2
30	LIG4 (DNA ligase 4)	3	-1.13	59.3	-1.05	87.4
31	PI3 (peptidase inhibitor 3)	1	1.16	105	0.48	103
32	PI3 (peptidase inhibitor 3)	2	-2.21	38	-2.92	91.6
33	PI3 (peptidase inhibitor 3)	3	-0.428	73.4	-1.14	111
34	ITPRIP (inositol 1,4,5-trisphosphate receptor interacting protein)	1	0.392	89.7	0.343	91.6
35	ITPRIP (inositol 1,4,5-trisphosphate receptor interacting protein)	2	1.38	109	0.491	107
36	ITPRIP (inositol 1,4,5-trisphosphate receptor interacting protein)	3	0.137	84.6	-0.268	101
37	MRPS14 (mitochondrial ribosomal protein S14)	1	0.671	95.2	0.456	94.4
38	MRPS14 (mitochondrial ribosomal protein S14)	2	-0.607	69.8	-0.468	88.2
39	MRPS14 (mitochondrial ribosomal protein S14)	3	-1.43	53.5	-0.565	69.4
40	PGBD5 (piggyBac transposable element derived 5)	1	-1.22	57.5	-1.02	84.1
41	PGBD5 (piggyBac transposable element derived 5)	2	2.02	122	1.71	87
42	PGBD5 (piggyBac transposable element derived 5)	3	-0.26	76.7	0.119	83.1

Ordered by “luciferase per cell, z-score” (lowest first): some entries from above.
gene knocked down	siRNA no.	total luciferase, z-score	total luciferase, % of control	luciferase per cell, z-score	viable cells, % of control
HOXC6 (homeobox C6)	1	-0.501	71.9	-0.906	102
CCL24 (C-C motif chemokine ligand 24)	3	0.78	97.4	-0.328	119
HOXC6 (homeobox C6)	2	0.711	96	1.07	80.9

Additional results follow:
no.	gene knocked down	siRNA no.	total luciferase, z-score	total luciferase, % of control	luciferase per cell, z-score	viable cells, % of control
43	ASAH2B (N-acylsphingosine amidohydrolase 2B)	1	0.248	86.8	0.486	85.4
44	ASAH2B (N-acylsphingosine amidohydrolase 2B)	2	-0.586	70.2	-1.09	105
45	ASAH2B (N-acylsphingosine amidohydrolase 2B)	3	1.77	117	1.59	86.1
46	NCAN (neurocan)	1	-1.13	59.5	-0.421	74.3
47	NCAN (neurocan)	2	-0.55	70.9	-0.395	88
48	NCAN (neurocan)	3	3.63 (active)	154	3.02	77.6
49	SEC14L4 (SEC14 like lipid binding 4)	1	-0.912	63.7	-0.696	85.5
50	SEC14L4 (SEC14 like lipid binding 4)	2	0.696	95.7	0.329	98.1
51	SEC14L4 (SEC14 like lipid binding 4)	3	-1.3	56	-0.173	65.5
52	GRK2 (G protein-coupled receptor kinase 2)	1	0.454	90.9	0.301	93.9
53	GRK2 (G protein-coupled receptor kinase 2)	2	0.624	94.3	0.653	88.7
54	GRK2 (G protein-coupled receptor kinase 2)	3	0.561	93	0.227	97.9
55	MASTL (microtubule associated serine/threonine kinase like)	1	-0.98	62.4	-1.04	91.8
56	MASTL (microtubule associated serine/threonine kinase like)	2	-0.726	67.5	-1.53	113
57	MASTL (microtubule associated serine/threonine kinase like)	3	-0.537	71.2	-1.11	107
58	NDUFB1 (NADH:ubiquinone oxidoreductase subunit B1)	1	-0.493	72.1	0.153	77.4
59	NDUFB1 (NADH:ubiquinone oxidoreductase subunit B1)	2	-0.762	66.7	-1.05	98.3
60	NDUFB1 (NADH:ubiquinone oxidoreductase subunit B1)	3	1.56	113	1.5	85.2
61	CDCA7 (cell division cycle associated 7)	1	2.31	128	1.66	92.3
62	CDCA7 (cell division cycle associated 7)	2	4.59 (active)	173	3.23	82.7
63	CDCA7 (cell division cycle associated 7)	3	4.54 (active)	172	2.84	91
64	GLTPP1 (glycolipid transfer protein pseudogene 1)	1	2.51	132	1.75	93
65	GLTPP1 (glycolipid transfer protein pseudogene 1)	2	-0.966	62.7	-0.78	86
66	GLTPP1 (glycolipid transfer protein pseudogene 1)	3	-0.862	64.7	-1.16	98.2
67	ELF2P4 (ELF2 pseudogene 4)	1	-0.979	62.4	-0.79	85.9
68	ELF2P4 (ELF2 pseudogene 4)	2	0.709	96	0.86	85.5
69	ELF2P4 (ELF2 pseudogene 4)	3	3.57 (active)	153	2.37	91.4
70	TTC9B (tetratricopeptide repeat domain 9B)	1	-0.392	74.1	-1.08	110
71	TTC9B (tetratricopeptide repeat domain 9B)	2	0.569	93.2	0.373	94.4
72	TTC9B (tetratricopeptide repeat domain 9B)	3	1.64	114	2.07	74.2
73	FAM9C (family with sequence similarity 9 member C)	1	-0.224	77.4	0.767	70.7
74	FAM9C (family with sequence similarity 9 member C)	2	-0.904	63.9	-0.396	79.3
75	FAM9C (family with sequence similarity 9 member C)	3	1.86	119	1.16	97.9
